Reference: patent US20250163149A1, “ANTI-RAGE ANTIBODY” (Swansea University, priority 2022, published 2025)
No constants are given. Whether binding was seen depends on the method and setting. Some binding calls cover weakened binding; strength is not graded here.

Legend:
[1] = molecular target: synthetic peptide S155 of the RAGE V-domain (amino acids 39-65) (human); test: SPR (Biacore T200), antibody amine-coupled to CM5, peptide as analyte
[2] = molecular target: synthetic peptide S155 of the RAGE V-domain (amino acids 39-65) (human); test: ELISA, BSA-conjugated peptide S155 on the plate, two-fold dilutions of antibody, HRP anti-mouse, OD 450 nm

B1: murine IG7 anti-RAGE monoclonal antibody (antibody, V domains shown)
VH: EVKLDETGGGLVQPGRPMKLSCIASGFTLSDYWMNWVRQSPEKGLEWVAQIRNRPYNFETLYSDSVKGRFIISRDDSKNSVYLQMDNLGPDDSGIYYCSSYRYGLAYWGQGTLVTVSA
VL: DILLTQSPAILSVSPGERVSISCRASQTIDKRIHWYQQRTNGSPRLLIKYMSESISGTPSRFSGSGSGTDFTLTINSVESEDIAVYYCQQTNYWPITFGSGTKLELK
notes: Same VH and VL as BG7; also called ID7
[1]
  binding: binds
[2]
  binding: binds
